This is an account of results in PubChem BioAssay AID2685 (National Center for Advancing Translational Sciences (NCATS), 2010).

Some of the results follow. Further columns of the screen follow, without active or inactive calls. The list favours compounds with an active or inconclusive main result. Potencies come from curve fits of mixed quality, noted in brackets.

The nature of this assay: qHTS Assay for Lipid Storage Modulators in Drosophila S3 Cells.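 For cell number change: cells counted by Cell Tracker Red CMTPX staining in the red channel.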 The note with it: BODIPY lipid droplet fluorescence, 18-24 h; for cell number change: measured here: cell count max response, cells fed with added oleic acid. The method in brief: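 Drosophila S3 cells loaded with oleic acid (400 uM, as added) and compounds at several concentrations; lipid droplets imaged by 488-nm laser-scanning cytometry, 500–530 nm intensity and object ratio to cell channel. Percent activity normalized to 20 uM Triacsin C.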

[1] abbreviates: measured here: cell number channel AC50, cells fed with added oleic acid.
[2] abbreviates: measured here: lipid fluorescence (Fed channel) AC50, cells fed with added oleic acid.

Regarding `O=C(COc1ccc(C(=O)c2ccccc2)cc1)NC1CCCCC1`, the AC50 under setting [1] was 6.51 µM [rising, single point].
Turning to `COc1ccc(C(CNC(=O)C(C)Oc2ccc(Br)cc2)N2CCCCC2)cc1` (centres undefined), the cell number change was -11.1%. Besides, the AC50 under setting [2] was 32.6 µM [falling, partial curve].
Take `CCOC(=O)c1ccc(NS(=O)(=O)c2ccc(-c3coc(C)n3)cc2)cc1`: the cell number change is 20.2%.
Take `CCOc1ccc(C(C)NC(=O)Nc2ccccc2C(=O)OC)cc1` (centres undefined): the cell number change came to 29.9%. In addition, the AC50 under setting [2] is 2.31 µM [rising, partial curve].
`COC(=O)c1cc(CNC(=O)c2cccc(Cl)c2Cl)ccc1OC`: under setting [2], the AC50 was 0.146 µM [rising, full curve, poor fit].
With `Cc1ccc(N2C(=O)CC(N3CCN(S(=O)(=O)c4ccccc4)CC3)C2=O)c(C)c1` (centres undefined), the cell number change was -38.6%. The AC50 under setting [1] was 8.2 µM [falling, partial curve, poor fit]. Also, under setting [2], the AC50 is 29.1 µM [falling, single point].
In the case of `Cc1ccc(-c2nnn(CC(=O)N(CC(=O)NC3CCCCC3)c3ccc(F)c(Cl)c3)n2)o1`, the cell number change is -53.9%. The AC50 under setting [1] was 23.1 µM [falling, partial curve]. For the same molecule, the AC50 under setting [2] was 23.1 µM [falling, partial curve].
Regarding `CC(C)(CO)NS(=O)(=O)c1ccc2c(c1)Cc1cc(S(=O)(=O)NC(C)(C)CO)ccc1-2`, the cell number change is -9.49%. In addition, the AC50 under setting [2] is 29.1 µM [falling, single point].
Consider `COC(=O)c1ccc2nc(NC(=O)C3CC3)sc2c1`, for which the cell number change came to 5.37%. The AC50 under setting [2] was 29.1 µM [falling, single point].
For the molecule `Cc1ccc(N(CC(=O)N/N=C/c2cccs2)S(C)(=O)=O)cc1`, the AC50 by setting is: under setting [1], 1.64 µM [falling, partial curve]; under setting [2], 2.31 µM [falling, partial curve, poor fit].
Regarding `CN=C1c2cc3c(Br)c(OC)ccc3n2CCN1C`, the cell number change was -3.13%. For the same molecule, under setting [2], the AC50 is 6.51 µM [falling, single point].
Turning to `CCN1CCN(CCCN(Cc2ccco2)C(=S)Nc2ccc(C)c(Cl)c2)CC1`, the AC50 under setting [1] was 6.51 µM [rising, single point].
`NC(=O)CCN(C1CCCCC1)S(=O)(=O)c1cccc2nsnc12`: the cell number change came to 17.6%.
With `Cc1ccc(NC(=O)CCN2C(=O)OC(C)(C)C2(C)O)cc1` (centres undefined), under setting [2], the AC50 was 0.116 µM [falling, partial curve, poor fit].
In the case of `O=C(COC(=O)COc1cccc(C(F)(F)F)c1)Nc1ccc(N2CCOCC2)cc1`, the cell number change was found to be 27.2%. Under setting [2], the AC50 was 29.1 µM [rising, single point].
Turning to `COc1ccc(C(=O)NCC(=O)OCC(=O)N2CC(C)CC(C)C2)cc1` (centres undefined), the cell number change is 31.3%. For the same molecule, the AC50 under setting [1] was 2.06 µM [rising, full curve, poor fit].
Take `Cc1ccc(C)c(S(=O)(=O)NNC(=O)Nc2ccccc2Cl)c1`: the cell number change came to 43.3%. Moreover, the AC50 under setting [1] is 5.8 µM [rising, full curve].
Regarding `COc1ccc(/C=N/NS(=O)(=O)c2ccccc2)cc1OS(=O)(=O)c1ccccc1`, the cell number change was -1.94%. Further, the AC50 under setting [2] is 8.2 µM [rising, single point].
Turning to `CC(Nc1nc(-c2cccnc2)nc2ccccc12)c1ccc(F)cc1` (centres undefined), the cell number change was 4.84%. Besides, the AC50 under setting [2] is 16.4 µM [falling, single point].
Turning to `COc1ccc(CN2CCN(CC(O)Cn3c4ccccc4c4ccccc43)CC2)cc1` (centres undefined), under setting [2], the concentration at half-maximal activity (AC50) was 0.82 µM [falling, single point].
In the case of `CCN(CC)C(=O)CSc1n[nH]c(=O)n1CCc1ccccc1`, the cell number change was 25.7%. The AC50 under setting [2] is 4.11 µM [rising, full curve].
`O=C(NCC1CCCO1)c1cc2cc(Cl)ccc2[nH]1` (centres undefined): the cell number change is -3.31%. Under setting [2], the AC50 is 0.58 µM [rising, single point].
For `COc1ccc2c(c1)sc(=NC(=O)CS(=O)(=O)c1ccc(F)cc1)n2C`, the cell number change is -25%. For the same molecule, the AC50 under setting [1] was 0.092 µM [falling, full curve, poor fit]. In addition, the AC50 under setting [2] was 3.26 µM [falling, full curve, poor fit].
As for `COc1cccc(NC(=O)CCN2CCN(C)CC2)c1`, the cell number change was -26.6%. For the same molecule, under setting [2], the AC50 was 20.6 µM [falling, partial curve].
Take `COc1ccc(N2CCOCC2)c(NC(=O)c2ccc(Br)o2)c1`: the cell number change is -42%. Moreover, the AC50 under setting [1] is 23.1 µM [falling, single point]. Under setting [2], the AC50 is 11.6 µM [falling, partial curve].
As for `COc1ccc(OC)c(N2C(=O)C(Cl)=C(N3CCOCC3)C2=O)c1`, the cell number change was -16.9%. For the same molecule, the AC50 under setting [2] was 2.91 µM [falling, full curve].
On to `COC(=O)Cc1c(O)ccn(Cc2cccc(C(F)(F)F)c2)c1=O`, for which the cell number change was 5.7%. Besides, the AC50 under setting [2] is 29.1 µM [rising, single point].
For `CCOC(=O)c1cccc(NC(=O)c2ccc(NC(=O)C3CCCO3)cc2)c1` (centres undefined), the AC50 under setting [2] is 10.3 µM [falling, partial curve, poor fit].
Consider `CCNC(=O)COC(=O)c1sccc1C`, for which the cell number change was 2.6%. For the same molecule, the AC50 under setting [2] was 0.00461 µM [rising, full curve, poor fit].
Regarding `Cc1c(OCC(=O)NCc2ccncc2)ccc2c3c(c(=O)oc12)CCCC3`, the cell number change was 46.6%. The AC50 under setting [1] is 0.058 µM [rising, full curve, poor fit]. In addition, the AC50 under setting [2] was 29.1 µM [rising, partial curve].
For `COCC(C)n1c(COc2ccccc2F)nnc1SCC(=O)Nc1oc(C)c2c(C)n[nH]c(=O)c12` (centres undefined), the cell number change was -1.41%. Further, the AC50 under setting [2] was 0.517 µM [rising, single point].
With `CN(c1ccc(Br)cc1)S(=O)(=O)c1ccc2[nH]cc(C(=O)NCCN3CCOCC3)c(=O)c2c1`, the cell number change was -28.9%. In addition, under setting [2], the AC50 was 1.46 µM [falling, full curve].
`Cc1ccc2nc3c(cc(C#N)c(=O)n3CCN3CCOCC3)c(=O)n2c1`: the cell number change was determined as 5.62%. Moreover, under setting [2], the AC50 was 0.092 µM [rising, full curve, poor fit].
As to `COc1ccccc1NC(=O)NC1CCCc2ccccc21` (centres undefined), the AC50 under setting [2] was 15.8 µM [rising, partial curve].
`CCOC(=O)C1CCN(C(=O)c2ccc3c(c2)NC(=O)/C(=C\c2ccc(C)cc2)S3)CC1`: the AC50 under setting [2] was 3.26 µM [falling, partial curve].
For the molecule `Cc1nc(C(=O)N2CCCC(C(=O)c3cccc(OC(C)C)c3)C2)cs1` (centres undefined), the cell number change was -32.9%. Moreover, the AC50 under setting [1] was 0.00517 µM [falling, full curve, poor fit].
For the molecule `CC1CCc2c(sc3ncnc(NCc4cccnc4)c23)C1` (centres undefined), the cell number change was 43.4%. Moreover, under setting [1], the AC50 was 5.17 µM [rising, full curve, poor fit].
